PubChem BioAssay AID1259308 | NCATS | 2017

Assay: 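Genes whose loss raises luciferase production in HEK293 cells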 (primary screen)
System: human HEK293 embryonic kidney cells stably expressing firefly luciferase (HEK-CMV-Luc2-Hygro)
Knock-down reagent: single siRNA against human genes, 0.8 pmol siRNA per well
Timing: 72 h
Read-out: 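Reporter luminescence and viable-cell signal on separate replicate plates, given as percent of non-targeting control and median/MAD z-scores, plus per-cell luciferase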
Reading the numbers: total luciferase, z-score and total luciferase, % of control: higher = more reporter protein produced
Rule for the call: 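An siRNA counts as active if its total luciferase robust z-score exceeds 3; genes with two or more such siRNAs out of three were retested with fresh siRNAs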
Calls: active = raised luciferase; inactive = no rise
This is a random part of about 59,000 deposited reagents. About 1,510 of all reagents (2.6%) were called active. 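Calls use total luciferase alone and ignore viability, so some active siRNAs may act by altering cell number.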 A number with no mark means an inactive call. Further read-outs or replicates are left out here. No sequences are given here.

target gene,PubChem SID,"total luciferase, z-score","total luciferase, % of control"
SOCS3,SID160721281,-1.08,60.5
SOCS3,SID160721283,1.2,106
SOCS3,SID160721284,-0.961,62.8
LOC645967,SID160769748,1.21,106
LOC645967,SID160769749,-0.152,78.9
LOC645967,SID160769751,0.215,86.2
AFDN,SID160734687,-0.415,73.6
AFDN,SID160773419,0.0545,83
AFDN,SID160773420,0.141,84.7
AFDN,SID160777307,0.265,87.2
AFDN,SID160777309,-1.71,48
AFDN,SID160777310,-0.195,78
IKZF1,SID160728162,0.69,95.6
IKZF1,SID160728164,-1.75,47.2
IKZF1,SID160728165,2.16,125
WNT10B,SID160718855,-1.1,60
WNT10B,SID160718857,0.218,86.2
WNT10B,SID160718858,0.213,86.1
ZNF215,SID160719287,0.886,99.5
ZNF215,SID160719288,-1,61.9
ZNF215,SID160719289,-0.0134,81.6
SYTL5,SID160754634,-1.08,60.5
SYTL5,SID160754635,-1.08,60.5
SYTL5,SID160754636,3.54 (active),152
ANO2,SID160745592,-1.04,61.1
ANO2,SID160745593,-0.29,76.1
ANO2,SID160745594,-0.078,80.3
BSG,SID160723680,-0.572,70.5
BSG,SID160729008,0.237,86.6
BSG,SID160729017,-0.424,73.5
ERCC8,SID160743849,0.494,91.7
ERCC8,SID160743859,3.56 (active),153
ERCC8,SID160743870,-0.902,63.9
EMC2,SID160722824,-0.943,63.1
EMC2,SID160722825,0.0254,82.4
EMC2,SID160722827,-0.0018,81.9
LANCL3,SID160764964,-1.73,47.5
LANCL3,SID160764965,0.901,99.8
LANCL3,SID160764966,0.919,100
RBM26,SID160731712,1.86,119
RBM26,SID160731713,-1.32,55.7
RBM26,SID160747380,0.178,85.4
TCEA1,SID160717769,-0.5,71.9
TCEA1,SID160717770,-0.0878,80.1
TCEA1,SID160717771,-0.0135,81.6
PRAM1,SID160751734,0.211,86.1
PRAM1,SID160751736,-1.04,61.3
PRAM1,SID160751737,0.0255,82.4
FMO2,SID160766702,0.986,101
FMO2,SID160766712,-0.562,70.7
FMO2,SID160766722,1.54,113
DRD3,SID160730720,0.784,97.5
DRD3,SID160756315,0.351,88.9
DRD3,SID160756326,-0.373,74.5
CCND2,SID160737714,-0.0839,80.2
CCND2,SID160737724,0.787,97.5
CCND2,SID160737734,1.68,115

An excerpt from above, limited to “total luciferase, % of control”.
AFDN [SID160777310]: 78
IKZF1 [SID160728162]: 95.6
IKZF1 [SID160728164]: 47.2
IKZF1 [SID160728165]: 125
WNT10B [SID160718855]: 60
WNT10B [SID160718857]: 86.2
WNT10B [SID160718858]: 86.1
ZNF215 [SID160719287]: 99.5
ZNF215 [SID160719288]: 61.9
